# Taken from: PubChem BioAssay AID1259405 (NCATS, 2018)
# Purpose: 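Mouse-designed siRNAs used to find CHO productivity engineering targets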 (primary screen)
# System: Chinese hamster CHO-K1 ovary cells with stable secreted eGFP expression
# Reagents: single siRNA against mouse genes, 0.8 pmol siRNA per well (2 µl of 400 nM stock)
# Time to read-out: 3 days
# Measurement: 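Per-well intracellular GFP measured by laser scanning cytometry, plus viability from ATP luminescence, each relative to plate median of non-targeting control wells, in %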
# Direction: GFP, % of control: higher = more GFP per well, higher productivity; viability (ATP), % of control: higher = more viable cells (more ATP)
# Hit rule: 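Called active when intracellular GFP, relative to negative control, is at or above 120%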
# The deposit covers about 50,000 reagents; shown is a random part of them. About 4,000 of all reagents (8%) count as active. 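Mouse siRNA library applied to hamster cells; one well for each siRNA.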 Unmarked entries are inactive. The numbers tell different reagents against one gene apart.
Target gene,reagent no.,"GFP, % of control","viability (ATP), % of control"
Dnajc19,1,83.8,81.6
Dnajc19,2,108,103
Dnajc19,3,55.2,73.1
Cpd,1,70.8,58.7
Cpd,2,181 (active),75.7
Cpd,3,41.8,38.6
Scarb1,1,113,123
Scarb1,2,74.6,69.8
Scarb1,3,63.2,93.6
Pdzk1ip1,1,51.1,66.4
Pdzk1ip1,2,27.3,23.2
Pdzk1ip1,3,62.2,50.3
Timd4,1,111,87.7
Timd4,2,64.7,71.1
Timd4,3,26.1,46.9
Arhgap4,1,142 (active),81.8
Arhgap4,2,78.3,75.2
Arhgap4,3,98.3,113
Lyz3,1,64.3,66.9
Lyz3,2,65.9,93.6
Lyz3,3,52.5,52.6
Zfp945,1,43.9,67.9
Zfp945,2,61.4,64.9
Zfp945,3,84.2,108
Trappc2l,1,60.9,73.7
Trappc2l,2,71.8,85.7
Trappc2l,3,67.5,79.4
Kin,1,51.4,71.1
Kin,2,50.2,67.3
Kin,3,71.4,83.7
F830005K03Rik,1,50.2,53.8
F830005K03Rik,2,72.9,90.1
F830005K03Rik,3,83.5,78.5
Myrip,1,71.9,51.9
Myrip,2,81.2,86.5
Ccdc54,1,72.5,88.2
Ccdc54,2,30.3,77.4
Ccdc54,3,104,94.7
Vwc2l,1,55.3,37.8
Vwc2l,2,55.8,68.6
Vwc2l,3,50.1,81.8
Fbxo6,1,77.5,102
Fbxo6,2,126 (active),90.6
Or8c17,1,66.3,52
Or8c17,2,73.3,45.4
Or8c17,3,90.5,86.9
Or5p61,1,83.2,42.3
Or5p61,2,89,74.4
Or5p61,3,49.1,67.2
Gsdmc2,1,147 (active),88.5
Gsdmc2,2,77.9,70.2
Gsdmc2,3,145 (active),113
Tektip1,1,124 (active),76.3
Tektip1,2,134 (active),59.4
Tektip1,3,55.3,88.6
Erich5,1,53.4,68.2
Erich5,2,60.6,79.6
Erich5,3,123 (active),124
Mrps31,1,80.6,68.8
Mrps31,2,61.3,90.2
Mrps31,3,56.6,77.1
Opn1mw,1,76.4,58.1
Opn1mw,2,92.3,73.8
Opn1mw,3,92,83.6
Prdx2,1,85.8,75.4
Prdx2,2,81.3,73
Prdx2,3,109,85.9
Prkcb,1,56.8,68
Prkcb,2,77.3,93.1
Prkcb,3,43.9,51.7
Gstm2,1,110,72.5
Gstm2,2,88.8,153
Gstm2,3,107,110
Gm6116,1,73.1,69.9
Gm6116,2,55.7,59.6
Gm6116,3,167 (active),56.3
Or2ag18,1,65.9,41.1
Or2ag18,2,80.1,70.5
Or2ag18,3,83.8,89.2
Chd8,1,41.5,25.8
Chd8,2,60.7,44.9
Chd8,3,47,68.6
Aldh8a1,1,164 (active),83.7
Aldh8a1,2,101,67.6
Aldh8a1,3,92.3,75.1
